Results on 1 molecule are retold here after patent US20250197499A1.

Sequences of proteins named here, by UniProt entry; tags and fusion partners are left off. Residues count along the entry.
UniProt Q9NZQ7: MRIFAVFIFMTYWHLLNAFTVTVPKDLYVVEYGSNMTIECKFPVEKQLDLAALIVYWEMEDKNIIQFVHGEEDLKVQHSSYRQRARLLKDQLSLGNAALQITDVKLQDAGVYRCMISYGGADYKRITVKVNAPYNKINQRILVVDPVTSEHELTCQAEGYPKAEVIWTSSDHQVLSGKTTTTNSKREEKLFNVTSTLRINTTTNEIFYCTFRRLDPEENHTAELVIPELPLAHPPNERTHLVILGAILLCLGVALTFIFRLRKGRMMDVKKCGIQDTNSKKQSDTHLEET
UniProt Q9BQ51, residues 20-219: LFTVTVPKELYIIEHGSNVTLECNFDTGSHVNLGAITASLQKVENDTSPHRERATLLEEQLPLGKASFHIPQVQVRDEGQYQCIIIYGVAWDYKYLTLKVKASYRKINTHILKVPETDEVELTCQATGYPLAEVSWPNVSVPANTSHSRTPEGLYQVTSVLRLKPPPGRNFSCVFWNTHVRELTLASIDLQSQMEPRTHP

No constants are given. Whether binding was seen depends on the method and setting.

Test [1] concerns the target Recombinant human PD-L1-His tag (ACROBiosystems, #PD1-H5229) (human) (UniProt Q9NZQ7). Briefly: multilayer Octet RED96e, PD-L1-His on His-sensor. A general note: BLI is a label-free optical method that tracks binding on a fibre tip over time.
Test [2] deals with Recombinant human PD-L2-His tag (ACROBiosystems, #PD2-H5220) (human) (UniProt Q9BQ51). The experiment in a line: multilayer Octet RED96e, PD-L2-His on His-sensor.
The target in test [3] is Recombinant human PD-L1-His tag (ACROBiosystems, #PD1-H5229) (human) (UniProt Q9NZQ7). The experiment in a line: Octet RED96e; PD-L1-His loaded at 10 µg/ml on HIS1K sensor; negative control.
In test [4] the target is Recombinant human PD-L2-His tag (ACROBiosystems, #PD2-H5220) (human) (UniProt Q9BQ51). Briefly: Octet RED96e; PD-L2-His loaded at 10 µg/ml on HIS1K sensor; negative control.
Test [5] has as its target Recombinant human PD-L1-His tag (ACROBiosystems, #PD1-H5229) (human) (UniProt Q9NZQ7). Briefly: Octet RED96e sensorgram; PD-L1-His loaded at 10 µg/ml on HIS1K sensor; negative control.
In test [6] the target is Recombinant human PD-L2-His tag (ACROBiosystems, #PD2-H5220) (human) (UniProt Q9BQ51). Briefly: Octet RED96e sensorgram; PD-L2-His loaded at 10 µg/ml on HIS1K sensor; negative control.

B1: Monoclonal anti-CD28 (9.3) mAb (GeneTex, #GTX14664) (antibody, V domains shown)
VH: EVKLQQSGPGLVTPSQSLSITCTVSGFSLSDYGVHWVRQSPGQGLEWLGVIWAGGGTNYNSALMSRKSISKDNSKSQVFLKMNSLQADDTAVYYCARDKGYSYYYSMDYWGQGTSVTVSS
VL: DIELTQSPASLAVSLGQRATISCRASESVEYYVTSLMQWYQQKPGQPPKLLIFAASNVESGVPARFSGSGSGTNFSLNIHPVDEDDVAMYFCQQSRKVPYTFGGGTKLEIK
As to B1, the binding entry in test [1] is “no binding (tested: 10 µg/ml)”; in test [2], “no binding (tested: 10 µg/ml)”; in test [3], “no binding (tested: 66,7 nM)”; in test [4], “no binding (tested: 66,7 nM)”; in test [5], “no binding (tested: 66,7 nM (concentration from FIG.3b))”; in test [6] it was “no binding (tested: 66,7 nM (concentration from FIG.4b))”.
